“And” between values parts separate entries of the source, which are not always exact repeats. Identical values can stand only once. Inconclusive means that the source gave no clear call. Such entries were picked first, then a sample of the others. Potencies beside an inconclusive call are fits to weak or partial responses and may not hold up. Some compounds were tested as several samples or in several runs, with calls that do not always agree. The source made the active and inactive calls. How the source made its calls: active means hit-call score of the fitted dose curve at least 0.9, where 1 is the maximum; inconclusive means response in the unintended direction; inactive means score below 0.9. *1 amine or outer side, *2 acyl side, *3 side chain or, on linkers, in order; H or OH if unused. Where a SMILES comes first, the peptide text is derived from it. Bridges are numbered along the chain shown (N, C = ends). Roman numbers before positions name the chains, in order. [ ]: non-standard residue; d: D form. Actinocin(9to1) = Cc1c2oc3c(C)ccc(C(=O)[*:1])c3nc-2c(C(=O)[*:2])c(N)c1=O; NMeV = CN[C@H](C(=O)O)C(C)C; Sar = CNCC(=O)O
assay: TOX21_p53_BLA_p5_viability: Viability Assessment in the Tox21 HCT-116 p53 Agonism Beta-lactamase Assay, Phase 5 (AID 2283600)
Source text: TOX21_p53_BLA_p5 is a cell-based, single-readout assay that uses HCT116, a human intestinal cell line, […] in a 1536-well plate.TOX21_p53_BLA_p5_viability is an assay readout measuring cellular ATP content and detected with CellTiter-Glo Luciferase-coupled ATP quantitation.TOX21_p53_BLA_p5_viability used a type of viability reporter where loss-of-signal activity can be used to understand changes in the cell viability. Furthermore, this assay endpoint can be referred to as a secondary readout, because this assay has produced multiple assay endpoints where this one serves a viability function. To generalize the intended target to other relatable targets, this assay endpoint is annotated to the cell cycle intended target family, where the subfamily is cytotoxicity.
Thawing Method: Place 14 mL of pre-warmed thaw medium into a 15 mL of conical tub. Remove the vial of cells to be thawed from liquid nitrogen and thaw rapidly by placing at 37C in a water bath with gentle agitation for 1-2 minutes. Decontaminate the vial by wiping with 70% ethanol before opening in a biological safety cabinet. Transfer the vial contents drop-wise into 14 mL of thaw medium in a sterile 15-mL conical tub. Centrifuge cells at 900 rpm for 4 minutes and resuspend in thaw medium. Transfer contents to the T75 tissue culture flask containing Thaw Medium and place flask in a humidified 37C/5% CO2 incubator. Switch to growth medium at first passage.Propagation Method: Aspirate medium, rinse once in DPBS, add 0.25% Trypsin/EDTA and swirl to coat the cell evenly. Add an equal volume of Growth Medium to inactivate Trypsin after 2-3 minutes incubation at 37C. Centrifuge cells at 900 rpm for 4 minutes and resuspend in growth medium. Cell should be passage or fed at least twice a week.Assay Protocol: Harvest cells from culture in growth medium and resuspend in assay medium. 2.2 Dispense 4000 cells/5 uL/well into 1536-well black/clear bottom plates using a Multidrop dispenser. After the cells were incubated at 37C for 5 hours, 23 nL of compounds dissolved in DMSO were transferred to the assay plate by a PinTool resulting in a 217-fold dilution. Incubate the plates for 16 hours at 37C, 5% CO2. Add 1 uL of 6X LiveBLAzer FRET B/G (CCF4-AM) Substrate Mixture to each well using a BioRAPTR dispenser and incubate the plates at room temperature for 2 hours. Measure fluorescence intensity at 460 and 530 nm emission and 405 nm excitation by an Envision detector. Data is expressed as the ratio of 460nm/530nm emissions. Add 4 uL of Cell-titer Glo to each well using BioRAPTR and incubate the plates at room temperature for […]. For cell viability readout that measures cytotoxicity, 4 ul/well of CellTiter-Glo reagent was added into the assay plates using a Flying Reagent Dispenser. After 30 min incubation at room temperature, the luminescence intensity in the plates was measured using a ViewLux plate reader.

Question: With `CCCC(=O)c1ccccc1` as the molecule, how does the AC50 read?
Answer: inconclusive: 46.1 µM

Question: With `Cc1c2oc3c(C)ccc(C(=O)N[C@@H]4C(=O)N[C@H](C(C)C)C(=O)N5CCC[C@H]5C(=O)N(C)CC(=O)N(C)[C@@H](C(C)C)C(=O)O[C@@H]4C)c3nc-2c(C(=O)N[C@@H]2C(=O)N[C@H](C(C)C)C(=O)N3CCC[C@H]3C(=O)N(C)CC(=O)N(C)[C@@H](C(C)C)C(=O)O[C@@H]2C)c(N)c1=O` (I: T[dV]P[Sar][NMeV] / II: T[dV]P[Sar][NMeV]; ester I:1-I:C, II:1-II:C; linker I:N-II:N via Actinocin(9to1)) as the molecule, how does the AC50 read?
Answer: inconclusive: 15.8 nM and inconclusive: 316 nM

Question: For `Cc1cc(N)no1`, which outcome is on record?
Answer: inactive

Question: With `CC(C)=CCCC(C)CC=O` (stereo not given) as the molecule, how does the AC50 read?
Answer: inconclusive: 46.1 µM

Question: For `CCCC[P+](CCCC)(CCCC)CCCC`, which AC50 is on record?
Answer: active: 14.5 µM

Question: Which AC50 does the source give for `CC1(C)S[C@@H]2[C@H](NC(=O)C(C(=O)Oc3ccc4c(c3)CCC4)c3ccccc3)C(=O)N2[C@H]1C(=O)O` (stereo not given in full) here?
Answer: inconclusive: 7.15 µM

Question: For `N#CCc1ccc(Cl)cc1Cl`, which AC50 is on record?
Answer: inconclusive: 46.1 µM

Question: Which outcome does the source give for `Oc1cc(O)cc(O)c1` here?
Answer: inactive

Question: For `CC(C)C(=O)c1c(C(C)C)nn2ccccc12`, which AC50 is on record?
Answer: inconclusive: 23 µM

Question: For `CN(C)CCC(c1ccccc1)c1ccccn1` (stereo not given), which AC50 is on record?
Answer: inconclusive: 23 µM

Question: For `Cc1cc(NC(=O)C(=O)O)cc(C)c1Oc1ccc(O)c2c1CCC2`, which AC50 is on record?
Answer: inconclusive: 46.1 µM

Question: For `CCCCCCCCCCCCCCCCCl`, which outcome is on record?
Answer: inactive

Question: Which results are given for `CC(=O)C(C)C`?
Answer: AC50: inconclusive: 47.5 µM; outcome: inactive

Question: With `CN(C)C(=N)N=C(N)N` as the molecule, how does the outcome read?
Answer: inactive

Question: And the AC50?
Answer: inconclusive: 46.1 µM

Question: With `CSSc1ccoc1C` as the molecule, how does the AC50 read?
Answer: inconclusive: 41.7 µM

Question: With `C#CC(O)CCCCC` (stereo not given) as the molecule, how does the outcome read?
Answer: inactive

Question: Which results are given for `CCOC(=O)CC(=O)OCC`?
Answer: outcome: inactive; AC50: inconclusive: 0.00407 µM

Question: For `CC(C)(C)NC(=O)[C@@H]1CN(Cc2cccnc2)CCN1C[C@@H](O)C[C@@H](Cc1ccccc1)C(=O)N[C@H]1c2ccccc2C[C@H]1O`, which AC50 is on record?
Answer: inconclusive: 14.3 µM and active: 37.5 µM

Question: With `COc1ccc2c(=O)c(C)c(-c3ccccc3)oc2c1CN(C)C` as the molecule, how does the AC50 read?
Answer: inconclusive: 41.9 µM

Question: With `C[C@@H]1C[C@H]2[C@@H]3C[C@H](F)C4=CC(=O)C=C[C@]4(C)[C@@]3(Cl)[C@@H](O)C[C@]2(C)[C@H]1C(=O)COC(=O)C(C)(C)C` as the molecule, how does the AC50 read?
Answer: inconclusive: 23 µM

Question: For `CCC(=O)OCC(=O)[C@@]1(OC(=O)CC)[C@@H](C)C[C@H]2[C@@H]3CCC4=CC(=O)C=C[C@]4(C)[C@@]3(F)[C@@H](O)C[C@@]21C`, which AC50 is on record?
Answer: inconclusive: 23 µM

Question: Which outcome does the source give for `CCCC(=O)C(=O)O` here?
Answer: inactive

Question: Which AC50 does the source give for `Nc1ccc(S(=O)(=O)NC(=O)c2ccccc2)cc1` here?
Answer: inconclusive: 10.3 µM

Question: Which AC50 does the source give for `O=[N+]([O-])c1cc(C(F)(F)F)ccc1Cl` here?
Answer: inconclusive: 46.1 µM

Question: And the outcome?
Answer: inactive

Question: With `CC(=O)O[C@H]1CC[C@@]2(C)C(=CC[C@@H]3[C@@H]2CC[C@]2(C)C(c4cccnc4)=CC[C@@H]32)C1` as the molecule, how does the AC50 read?
Answer: inconclusive: 39.2 µM

Question: Which AC50 does the source give for `CCCCCCCCCCCCCCC(=O)NC(CO)CCCCCCCCCCCCCC` (stereo not given) here?
Answer: inconclusive: 30.5 µM

Question: For `CCOC(=O)[C@H](CCc1ccccc1)N[C@H]1CCCN2CCC[C@@H](C(=O)O)N2C1=O`, which AC50 is on record?
Answer: inconclusive: 23 µM

Question: With `O=P(O)(O)C(O)(Cc1cnc2ccccn12)P(=O)(O)O` as the molecule, how does the AC50 read?
Answer: inconclusive: 23 µM

Question: Which outcome does the source give for `CC1(C)S[C@@H]2[C@H](NC(=O)[C@@H](NC(=O)N3CCNC3=O)c3ccccc3)C(=O)N2[C@H]1C(=O)O` here?
Answer: inactive

Question: For `CC(C)(C)c1ccc(CCC=O)cc1`, which AC50 is on record?
Answer: inconclusive: 46.1 µM

Question: Which AC50 does the source give for `CCOc1nc2cccc(C(=O)OC(C)OC(=O)OC3CCCCC3)c2n1Cc1ccc(-c2ccccc2-c2nn[nH]n2)cc1` (stereo not given) here?
Answer: active: 7.02 µM

Question: For `ON=C1CCCCC1`, which outcome is on record?
Answer: inactive

Question: What about the AC50 of the same molecule?
Answer: inconclusive: 46.1 µM

Question: For `COc1ccc(-c2cc(=S)ss2)cc1`, which AC50 is on record?
Answer: inconclusive: 23 µM

Question: Which AC50 does the source give for `CC(=O)N(CC(O)CO)c1c(I)c(C(=O)NCC(O)CO)c(I)c(C(=O)NCC(O)CO)c1I` (stereo not given) here?
Answer: inconclusive: 23 µM

Question: Which AC50 does the source give for `CN1CCOC(c2ccccc2)c2ccccc2C1` (stereo not given) here?
Answer: inconclusive: 10.3 µM

Source: PubChem BioAssay (EPA / NIEHS)
